Here are results for one compound from patent publication US20130136691A1, “GASTRIN […] PEPTIDE COMPOUNDS” (priority 2008, published 2013).

Structures are written as SMILES.

This assay has as its system GRP receptor binding in ZR-75-1 human breast cancer cells. As to the kind of experiment: 4-hydroxytamoxifen effect on 177Lu-AMBA binding and proliferation in ZR-75-1 cells (2 to 12 days). Type of assay: cell-based. Conditions: viable cell basis.

With `CC/C(=C(\c1ccc(O)cc1)c1ccc(OCCN(C)C)cc1)c1ccccc1` [Compound 4-Hydroxy-Tamoxifen], the “% change in ^177Lu-AMBA uptake” value runs as follows: (1 nM) −42.6 (±7.1) %; (10 nM) −57.3 (±8.4) %; (100 nM) −69.2 (±4.9) %.
